ChEMBL document CHEMBL4303122, “Identification of potential treatments for COVID-19 through artificial intelligence-enabled phenomic analysis of human cells infected with SARS-CoV-2” (2020)
Whole data set: some 1,600 compounds, median “Hit score” near 0.13, cut for the highest 2% near 0.46. The list shows a part of the results.

These molecules were tested on SARS-CoV-2 (assay: Antiviral activity against SARS-CoV-2 (USA-WA1/2020 strain) measured by imaging in HRCE cells at MOI 0.4 after 96 hrs (reported as hit score from 0-1 for on-disease vs off-disease activity: scores >0.6 considered hits)).
Format: functional, Homo sapiens
`C=C1C[C@@H]2[C@H](CC[C@]3(C)C(=O)CC[C@@H]23)[C@@]2(C)C=CC(=O)C=C12` [EXEMESTANE] was tested, and the Hit score was 0.04062.
`CCOC(=O)Nc1ccc2c(c1)N(C(=O)CCN1CCOCC1)c1ccccc1S2` [MORICIZINE] gave a Hit score of 0.1084.
Molecule `CNC[C@H](O)c1cccc(O)c1` [PHENYLEPHRINE] has a Hit score of 0.03283.
Work on `N[C@@H]1CN(c2c(F)cc3c(=O)c(C(=O)O)cn([C@@H]4C[C@@H]4F)c3c2Cl)CC12CC2` [SITAFLOXACIN ANHYDROUS] yielded a Hit score of 0.1303.
Molecule `C[C@H]1c2cccc(O)c2C(=O)C2=C(O)[C@]3(O)C(=O)C(C(N)=O)=C(O)[C@@H](N(C)C)[C@@H]3[C@@H](O)[C@@H]21.O` [DOXYCYCLINE] has a Hit score of -0.02175.
For `CN1C(=O)CC(C)(c2ccccc2)C1=O` (centres undefined) [METHSUXIMIDE], the Hit score was 0.324.
With `CCC(=O)NS(=O)(=O)c1ccc(-c2c(-c3ccccc3)noc2C)cc1` [PARECOXIB] the Hit score was 0.03281.
With `N#C[C@@H]1CCCN1C(=O)CNC12CC3CC(CC(O)(C3)C1)C2` [VILDAGLIPTIN] the Hit score was 0.2586.
In the case of `C#C[C@]1(O)CC[C@H]2[C@@H]3CCC4=C(CCC(=O)C4)[C@H]3CC[C@@]21C` [NORETHYNODREL], the Hit score is reported as 0.09257.
Molecule `CC(C)c1cc2c(cc1S(=O)(=O)O)[C@@]1(C)CCC[C@@](C)(C(=O)O)[C@@H]1CC2` [ECABET] has a Hit score of 0.1341.
`CCC[C@@H]1C[C@@H](C(=O)N[C@@H]([C@H]2O[C@H](SC)[C@H](OP(=O)(O)O)[C@@H](O)[C@H]2O)[C@H](C)Cl)N(C)C1` [CLINDAMYCIN PHOSPHATE] was tested, and the Hit score was 0.1852.
Molecule `COC(=O)c1ccc2c(c1)NC(=O)/C2=C(\Nc1ccc(N(C)C(=O)CN2CCN(C)CC2)cc1)c1ccccc1` [NINTEDANIB] has a Hit score of 0.1859.
For `CC(C)C[C@H](NC(=O)CNC(=O)c1cc(Cl)ccc1Cl)B(O)O` [IXAZOMIB], the Hit score was -0.7016.
Molecule `CNC(=O)c1c(C)oc2cc(Oc3ncnc4cc(OC)c(OC)cc34)ccc12` [FRUQUINTINIB] has a Hit score of 0.1378.
`CCOc1ccccc1C(N)=O` [ETHENZAMIDE] showed a Hit score of 0.115.
`CN(CCOc1ccc(NS(C)(=O)=O)cc1)CCc1ccc(NS(C)(=O)=O)cc1` [DOFETILIDE] was tested, and the Hit score was 0.2147.
`C1=N/C2=N/c3ccc(OCCN4CCCC4)c(c3)COC/C=C/COCc3cccc(c3)C(=C1)N2` [PACRITINIB] gave a Hit score of 0.4102.
Work on `CCCCCC/C=C/C=C\CCCCCCCC(=O)O` yielded a Hit score of 0.1392.
`COc1ccc2cccc(CCNC(C)=O)c2c1` [AGOMELATINE] gave a Hit score of 0.1484.
Molecule `CC(C)NCC(O)c1ccc(NS(C)(=O)=O)cc1` (centres undefined) [SOTALOL] has a Hit score of 0.3853.
`CCNC1(c2cccs2)CCCCC1=O` (centres undefined) [TILETAMINE] gave a Hit score of 0.2012.
In the case of `CCCCCCCCCCCCCCCC[N+](C)(C)CCN(Cc1ccc(OC)cc1)c1ncccn1` [THONZONIUM], the Hit score is reported as 0.1484.
For `COc1cc(OC)cc(N(CCNC(C)C)c2ccc3ncc(-c4cnn(C)c4)nc3c2)c1` [ERDAFITINIB], the Hit score was 0.03006.
`Cc1nc(C)c(Cl)c(O)c1Cl` [CLOPIDOL] showed a Hit score of 0.1314.
`CCN(CC)CCCC(C)Nc1c2ccc(Cl)cc2nc2ccc(OC)cc12` (centres undefined) [QUINACRINE] was tested, and the Hit score was -0.004903.
In the case of `CN(C)CCCN1c2ccccc2CCc2ccc(Cl)cc21` [CLOMIPRAMINE], the Hit score is reported as 0.1291.
`Nc1ccc(O)c(C(=O)O)c1` [MESALAMINE] gave a Hit score of 0.1964.
Work on `Clc1ccccc1CN1CCc2sccc2C1` [TICLOPIDINE] yielded a Hit score of 0.194.
In the case of `CCOC(=O)OC(C)OC(=O)[C@@H]1N2C(=O)[C@@H](NC(=O)[C@H](N)c3ccccc3)[C@H]2SC1(C)C` (some centres undefined) [BACAMPICILLIN], the Hit score is reported as 0.01773.
Work on `CCCCCCCC(=O)N[C@H](CN1CCCC1)[C@H](O)c1ccc2c(c1)OCCO2` yielded a Hit score of -0.0874.
`O=C(NN1C(=O)[C@@H]2[C@@H]3C=C[C@@H]([C@H]4C[C@@H]34)[C@@H]2C1=O)c1ccc(C(F)(F)F)cc1` [TECOVIRIMAT] gave a Hit score of 0.03467.
In the case of `CC(C)NC[C@H](O)COc1ccc(CCOCC2CC2)cc1` [LEVOBETAXOLOL], the Hit score is reported as 0.4949.
Work on `O=C1CC[C@@H](C(=O)O)N1` [PIDOLIC ACID] yielded a Hit score of 0.1555.
`CCC(C)(C)C(=O)O[C@H]1C[C@@H](C)C=C2C=C[C@H](C)[C@H](CC[C@@H]3C[C@@H](O)CC(=O)O3)[C@H]21` [SIMVASTATIN] showed a Hit score of 0.1206.
In the case of `COc1ccc(C(=O)N2CCN(c3ccc4c(c3)CCC(=O)N4)CC2)cc1OC` [VESNARINONE], the Hit score is reported as 0.09463.
`C=CCc1cc(OC)c(O)c(C(=O)NCCO)c1` [ALIBENDOL] was tested, and the Hit score was 0.1813.
Work on `C[C@H]1O[C@@H](O[C@H]2[C@@H](O)C[C@H](O[C@H]3[C@@H](O)C[C@H](O[C@H]4CC[C@@]5(C)[C@H](CC[C@@H]6[C@@H]5CC[C@]5(C)[C@@H](C7=CC(=O)OC7)CC[C@]65O)C4)O[C@@H]3C)O[C@@H]2C)C[C@H](O)[C@@H]1O` [DIGITOXIN] yielded a Hit score of -0.2851.
With `CC(C)(C)C(=O)OCOC(=O)[C@@H]1N2C(=O)C[C@H]2S(=O)(=O)C1(C)C` [SULBACTAM PIVOXIL] the Hit score was 0.1252.
`CC[C@]12CCCN3CCc4c(n(c5ccccc45)C(=O)C1)[C@@H]32` [VINBURNINE] showed a Hit score of 0.1621.
For `OC[C@@H](O)[C@@H](O)CO` [E968], the Hit score was 0.1573.
`O=C1C(CC[S+]([O-])c2ccccc2)C(=O)N(c2ccccc2)N1c1ccccc1` (centres undefined) [SULFINPYRAZONE] gave a Hit score of -0.09933.
In the case of `O=C(Cc1ccc(-c2ccccc2)cc1)Nc1ccccn1` [DIFENPIRAMIDE], the Hit score is reported as 0.2732.
Molecule `CCCCC(=O)OCC(=O)[C@]1(O)Cc2c(O)c3c(c(O)c2[C@@H](O[C@H]2C[C@H](NC(=O)C(F)(F)F)[C@H](O)[C@H](C)O2)C1)C(=O)c1c(OC)cccc1C3=O` [VALRUBICIN] has a Hit score of 0.1204.
With `NS(=O)(=O)c1cc2c(cc1Cl)N=C(CSCc1ccccc1)NS2(=O)=O` [BENZTHIAZIDE] the Hit score was 0.1308.
For `COC(=O)OCOc1c2n(ccc1=O)N([C@@H]1c3ccccc3SCc3c1ccc(F)c3F)[C@@H]1COCCN1C2=O` [BALOXAVIR MARBOXIL], the Hit score was 5.7e-05.
Molecule `CCCCS(=O)(=O)N[C@@H](Cc1ccc(OCCCCC2CCNCC2)cc1)C(=O)O.Cl.O` [TIROFIBAN HYDROCHLORIDE] has a Hit score of 0.1975.
In the case of `C[C@@H]1CC(=O)NN=C1c1ccc(NN=C(C#N)C#N)cc1` [LEVOSIMENDAN], the Hit score is reported as 0.1264.
With `O=C(Nc1cc(Cl)cc(Cl)c1O)c1c(O)c(Cl)cc(Cl)c1Cl` [OXYCLOZANIDE] the Hit score was 0.1882.
Molecule `O=[N+]([O-])c1ccc([As](=O)(O)O)cc1` has a Hit score of 0.01938.
In the case of `O=C(O)Cc1ccccc1Nc1c(Cl)cccc1Cl` [DICLOFENAC], the Hit score is reported as 0.07182.
For `C[C@@H](c1ncncc1F)[C@](O)(Cn1cncn1)c1ccc(F)cc1F` [VORICONAZOLE], the Hit score was 0.166.
Work on `CC(C)Cc1ccc([C@H](C)C(=O)O)cc1` [DEXIBUPROFEN] yielded a Hit score of 0.05761.
Molecule `Cc1ccn(-c2cc(Cl)ccc2[C@@H](Oc2cc(-c3ccc(C[C@H](N)C(=O)O)cc3)nc(N)n2)C(F)(F)F)n1` [TELOTRISTAT] has a Hit score of -0.05214.
In the case of `Cc1cncc(CN2CCC(=C3c4ccc(Cl)cc4CCc4cccnc43)CC2)c1` [RUPATADINE], the Hit score is reported as 0.08101.
Work on `CCOc1cc(NC(C)=O)ccc1C(=O)OC` [ETHOPABATE] yielded a Hit score of 0.0447.
`O=c1[nH]cc(F)c(=O)[nH]1` [FLUOROURACIL] was tested, and the Hit score was 0.2369.
`CC(=O)Oc1cc(C(F)(F)F)ccc1C(=O)O` [TRIFLUSAL] gave a Hit score of 0.08111.
Molecule `O=C(Nc1cccc2c(=O)cc(-c3nnn[nH]3)oc12)c1ccc(OCCCCc2ccccc2)cc1` has a Hit score of 0.04471.
In the case of `Cc1ccc(C(=O)Nc2ccc(CN3CCN(C)CC3)c(C(F)(F)F)c2)cc1C#Cc1cnc2cccnn12` [PONATINIB], the Hit score is reported as 0.5086.
With `CC(C)(C)NC[C@H](O)COc1nsnc1N1CCOCC1` [TIMOLOL] the Hit score was 0.174.
`C#C[C@]1(O)CC[C@H]2[C@@H]3CCC4=CC(=O)CC[C@@H]4[C@H]3C(=C)C[C@@]21CC` [ETONOGESTREL] showed a Hit score of 0.1134.
`NCCCC[C@H](N[C@@H](CCc1ccccc1)C(=O)O)C(=O)N1CCC[C@H]1C(=O)O` [LISINOPRIL ANHYDROUS] was tested, and the Hit score was 0.2648.
`O=C(N/N=C/c1ccc([N+](=O)[O-])o1)c1cc([N+](=O)[O-])cc([N+](=O)[O-])c1O` [NIFURSOL] was tested, and the Hit score was -0.1241.
`COC1=C(OC)C(=O)C(CCCCCCCCCCO)=C(C)C1=O` [IDEBENONE] was tested, and the Hit score was 0.08349.
For `CCOC(=O)[C@H](CCc1ccccc1)N[C@H]1CCc2ccccc2N(CC(=O)O)C1=O` [BENAZEPRIL], the Hit score was 0.112.
`Brc1ccc(NC2C3CC4CC(C3)CC2C4)cc1` (centres undefined) was tested, and the Hit score was 0.3495.
Molecule `COc1cccc(N2CCN(C3=Nc4c(F)cccc4[C@H](CC(=O)O)N3c3cc(C(F)(F)F)ccc3OC)CC2)c1` [LETERMOVIR] has a Hit score of 0.3651.
`Cc1nc2ccccc2n1Cc1ccc(Cl)cc1` [CHLORMIDAZOLE] showed a Hit score of -0.04269.
Work on `CCCN1CC(NS(=O)(=O)N(CC)CC)CC2Cc3c(O)cccc3CC21` (centres undefined) [QUINAGOLIDE] yielded a Hit score of 0.09123.
